# The list shows a part of the results.
# Target: T1, OsSMF1 (Oryza sativa, UniProt Q6ZLB0 1-436)
# T1 sequence: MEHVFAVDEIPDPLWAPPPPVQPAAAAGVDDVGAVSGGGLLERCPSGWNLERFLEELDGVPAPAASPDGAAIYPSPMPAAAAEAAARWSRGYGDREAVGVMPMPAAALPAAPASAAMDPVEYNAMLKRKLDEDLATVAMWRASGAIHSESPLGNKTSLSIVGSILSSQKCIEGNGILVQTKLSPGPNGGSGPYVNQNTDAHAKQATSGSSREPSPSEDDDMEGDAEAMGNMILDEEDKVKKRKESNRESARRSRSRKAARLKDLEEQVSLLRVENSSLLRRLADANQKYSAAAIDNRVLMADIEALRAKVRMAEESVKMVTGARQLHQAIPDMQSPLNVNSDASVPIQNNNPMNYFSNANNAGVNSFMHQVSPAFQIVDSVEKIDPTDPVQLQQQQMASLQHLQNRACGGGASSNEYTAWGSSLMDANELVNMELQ
# Test: protein-binding microarray (RPBM); PBS, 2% BSA, 51.3 ng/ul salmon testes DNA, 50 uM zinc acetate, 200 nM TF, 25 C, 1 h; high values mean tight binding
# Conditions: protein: recombinant; tags: N-terminal polyhistidine and DsRed monomer fusion (pET32a); chain copies: 2; label: CyDye5-dUTP incorporated in the synthesized complementary strand; 3' TTTTT single-stranded linker to array surface; dsDNA, one strand shown
# In short: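 The binding signal for each feature is its fluorescence intensity in arbitrary units. An Axon 4000B scanner was used to read a custom Agilent array that had been made double-stranded with Cy5-dUTP primer extension, blocked with 2% BSA, incubated at 25 °C for 1 h with 200 nM protein in PBS, 2% BSA, salmon testes DNA and 50 µM zinc acetate, and washed. The protein was an N-terminal polyhistidine–DsRed transcription factor fusion from E. coli BL21-CodonPlus, purified on Ni–NTA.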
row,Sequence,binding signal
1,CTTGGCACCATTTCACATCAGTAATTCCCCATCACACGCACGGAGTCACCTAGTGCAG,25600 fluorescence intensity (a.u.)
2,GACGAATCTTTGCTGAGTAGGAGGCAGCAACCACTATGAGCGGAGTCACCTAGTGCAG,4660 fluorescence intensity (a.u.)
3,TTGAAGCAAATTTTAAGATATCATTTTATCCTGGCAAGGTCGGAGTCACCTAGTGCAG,3270 fluorescence intensity (a.u.)
4,GCCGCGCCATGACGACGGGATGTCGCCTAGGTGGCCATCACGGAGTCACCTAGTGCAG,3990 fluorescence intensity (a.u.)
5,CCCTACACATCTCTCTTCCACCTAGTTTACTTCGACCTGGCGGAGTCACCTAGTGCAG,3560 fluorescence intensity (a.u.)
6,CACCGCACCACCACCACCACGCACGCAAGCACGCCTCTCGCGGAGTCACCTAGTGCAG,5320 fluorescence intensity (a.u.)
7,CAGATAGGCTAATAGGCATCGGAGGAGCGGGAGGACCTCTCGGAGTCACCTAGTGCAG,37400 fluorescence intensity (a.u.)
8,TCTAAATTACTGTTTAGTCGATGACTCGATGTAATACATTCGGAGTCACCTAGTGCAG,4400 fluorescence intensity (a.u.)
9,CCACGCCTCCATCCCTCTTCGTCGGCGTCTCCGATGGATGCGGAGTCACCTAGTGCAG,3330 fluorescence intensity (a.u.)
10,AGCACGCCGCAGCACTGCATCAGCACGGCCGCCACCACCACGGAGTCACCTAGTGCAG,4060 fluorescence intensity (a.u.)
11,CCCTGCTGTGACTGAGCTACATACTACCAGAGCTAAAGCACGGAGTCACCTAGTGCAG,34100 fluorescence intensity (a.u.)
12,TCCAGCTGCTGCATCCACCTCACTGCCGTCGCCGCCGCCGCGGAGTCACCTAGTGCAG,3310 fluorescence intensity (a.u.)
13,AGCTCCATGGTGGTAAAACCATTGCATATGCGTTGTCCTCCGGAGTCACCTAGTGCAG,4230 fluorescence intensity (a.u.)
14,GCCACCCGCCTCGCGGAGTCACGGGCTCGAGCTCCACCACCGGAGTCACCTAGTGCAG,4510 fluorescence intensity (a.u.)
15,CATCGAGGGCAGCCACAAGCTGGAGCACACCGAGCAGTTCCGGAGTCACCTAGTGCAG,24000 fluorescence intensity (a.u.)
16,GGTATGCATAGCTGTGGCTAGGGTGCAAGCGAGGATGGTACGGAGTCACCTAGTGCAG,3610 fluorescence intensity (a.u.)
17,GTCCTACATGGCTGCTGAGTCAGCGTGGGACCCATGTGGACGGAGTCACCTAGTGCAG,18000 fluorescence intensity (a.u.)
18,AACACAGAAGTAGGGTATTACGCTCCACAGCGGCCCGAACCGGAGTCACCTAGTGCAG,3880 fluorescence intensity (a.u.)
19,CAAATTATGACACAGTTGATATTCCTTGTTTGAAAATTGTCGGAGTCACCTAGTGCAG,3470 fluorescence intensity (a.u.)
20,AAACCACCCATTACGTATATGCTTAACTGAATCAACATGTCGGAGTCACCTAGTGCAG,3390 fluorescence intensity (a.u.)
21,GTGTGTGTATGACAGGTGGGACCATATATTAATAGTGTAGCGGAGTCACCTAGTGCAG,3480 fluorescence intensity (a.u.)

# Reprinted at random: 2 records from the list
row,Sequence,binding signal
10,AGCACGCCGCAGCACTGCATCAGCACGGCCGCCACCACCACGGAGTCACCTAGTGCAG,4060 fluorescence intensity (a.u.)
19,CAAATTATGACACAGTTGATATTCCTTGTTTGAAAATTGTCGGAGTCACCTAGTGCAG,3470 fluorescence intensity (a.u.)

# (list continues)

row,Sequence,binding signal
1,AAGTTTGATTTTGAACACGGTGGCAGCAAAGTGACACGAACGGAGTCACCTAGTGCAG,4600 fluorescence intensity (a.u.)
2,ACGGCGGATGCTGGATATCTTACACGTAGACTTGTTGAAGCGGAGTCACCTAGTGCAG,9320 fluorescence intensity (a.u.)
3,CATATTTATCCGATGAGATCAATCGACAAGTCAGTAACCACGGAGTCACCTAGTGCAG,3890 fluorescence intensity (a.u.)
4,AGAGAAGTTCAGTCTCTGAATGTGTGTTGCCAATTGCTGACGGAGTCACCTAGTGCAG,3190 fluorescence intensity (a.u.)
5,CAGATCTCGCCTTCCGATCACGCCGCGCGATGCGGGCCGTCGGAGTCACCTAGTGCAG,14500 fluorescence intensity (a.u.)
6,GAGAGCGAACGGCCGTCTGCCACGTCATTTTCGCCGCCCTCGGAGTCACCTAGTGCAG,17000 fluorescence intensity (a.u.)
7,GCGCCGCACGGTCGTCATCATCACTGGGGTCGTCTTCGCACGGAGTCACCTAGTGCAG,4070 fluorescence intensity (a.u.)
8,ACACGCACACATGCAGATATGCTGCCTGCCTGCCTCGTCACGGAGTCACCTAGTGCAG,4200 fluorescence intensity (a.u.)
9,GTATTCAGCTGCATGAGGATCATCACAAGATTTGGAGGACCGGAGTCACCTAGTGCAG,3530 fluorescence intensity (a.u.)
10,AGAGCCAAGAGAGAGGGAGACGCGTCACCACCCTTCCCTTCGGAGTCACCTAGTGCAG,9080 fluorescence intensity (a.u.)
11,GTGCAAGTTTTGTCACTTCTATTGGCATGGAGTCGTCTCTCGGAGTCACCTAGTGCAG,4180 fluorescence intensity (a.u.)
12,ATATAAATTTTGGCTCCTAATTGACATCAATCCAAACACACGGAGTCACCTAGTGCAG,3570 fluorescence intensity (a.u.)
13,TTACGGCGTAAGCCGGCTTACGACGTAAGCCAGAAGGTCCCGGAGTCACCTAGTGCAG,3380 fluorescence intensity (a.u.)
14,TGGACTTTGAATCCATCCACCTCATCCTCCTCCCGCGTACCGGAGTCACCTAGTGCAG,6720 fluorescence intensity (a.u.)
15,TGGGAGCGCTGGGGCTGGCCATCTCTCCTTGCCTGCTGTGCGGAGTCACCTAGTGCAG,29400 fluorescence intensity (a.u.)
16,CCTCTCGTCTCGCTCGTCGCGGCCACCTCTCTTTCTCTCTCGGAGTCACCTAGTGCAG,30500 fluorescence intensity (a.u.)
17,CGAGACTGACAAGGCATTCCAGACACTTAAACAAGCACTGCGGAGTCACCTAGTGCAG,3350 fluorescence intensity (a.u.)
18,TGCTAATACACCGTATGACGTATTATCCATATTCGGCCAACGGAGTCACCTAGTGCAG,7520 fluorescence intensity (a.u.)
19,TGCCTACCGATGACGCAGTCCTCCCTCCTTTCTTTTCGGTCGGAGTCACCTAGTGCAG,8400 fluorescence intensity (a.u.)
20,GAAGAGAGAGGAGGCTGATGTGGCCACGCTGACATGTGGGCGGAGTCACCTAGTGCAG,8310 fluorescence intensity (a.u.)
21,ATACAAGATCAATATCCGTGCTGACGCAAATAGGAAATGGCGGAGTCACCTAGTGCAG,3850 fluorescence intensity (a.u.)
